From patent US20250355001A1, “METHOD FOR DETECTING A TAU PROTEIN FRAGMENT IN A SAMPLE” (GTINVENT LIMITED, priority 2022, published 2025)
Results are given in words; binding and its absence hold for the method and conditions named. Some binding calls cover weakened binding; strength is not graded here.

Sequences of proteins named here, by UniProt entry; tags and fusion partners are left off. A change or cut given only in a name is not applied to a line headed by its entry.
UniProt P10636: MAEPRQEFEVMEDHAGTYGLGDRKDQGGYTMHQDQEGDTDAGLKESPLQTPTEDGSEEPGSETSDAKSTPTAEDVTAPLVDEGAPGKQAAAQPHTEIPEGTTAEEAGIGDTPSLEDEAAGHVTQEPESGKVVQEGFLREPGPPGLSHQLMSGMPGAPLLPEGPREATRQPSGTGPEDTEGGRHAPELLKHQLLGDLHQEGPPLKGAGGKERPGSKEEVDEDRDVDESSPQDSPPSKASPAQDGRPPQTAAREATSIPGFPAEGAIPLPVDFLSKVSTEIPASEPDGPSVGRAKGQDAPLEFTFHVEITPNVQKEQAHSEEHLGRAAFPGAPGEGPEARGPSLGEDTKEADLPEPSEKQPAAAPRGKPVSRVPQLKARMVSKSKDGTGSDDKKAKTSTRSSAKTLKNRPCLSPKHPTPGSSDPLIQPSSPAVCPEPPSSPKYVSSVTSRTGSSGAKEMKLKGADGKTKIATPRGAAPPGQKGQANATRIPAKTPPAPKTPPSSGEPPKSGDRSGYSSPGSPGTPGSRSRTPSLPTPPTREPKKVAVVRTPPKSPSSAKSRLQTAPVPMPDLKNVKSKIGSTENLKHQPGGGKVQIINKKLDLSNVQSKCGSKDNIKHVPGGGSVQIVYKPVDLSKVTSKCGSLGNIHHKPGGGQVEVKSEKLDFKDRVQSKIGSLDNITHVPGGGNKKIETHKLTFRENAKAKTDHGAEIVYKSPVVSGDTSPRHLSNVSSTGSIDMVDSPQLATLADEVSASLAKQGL
UniProt P10637: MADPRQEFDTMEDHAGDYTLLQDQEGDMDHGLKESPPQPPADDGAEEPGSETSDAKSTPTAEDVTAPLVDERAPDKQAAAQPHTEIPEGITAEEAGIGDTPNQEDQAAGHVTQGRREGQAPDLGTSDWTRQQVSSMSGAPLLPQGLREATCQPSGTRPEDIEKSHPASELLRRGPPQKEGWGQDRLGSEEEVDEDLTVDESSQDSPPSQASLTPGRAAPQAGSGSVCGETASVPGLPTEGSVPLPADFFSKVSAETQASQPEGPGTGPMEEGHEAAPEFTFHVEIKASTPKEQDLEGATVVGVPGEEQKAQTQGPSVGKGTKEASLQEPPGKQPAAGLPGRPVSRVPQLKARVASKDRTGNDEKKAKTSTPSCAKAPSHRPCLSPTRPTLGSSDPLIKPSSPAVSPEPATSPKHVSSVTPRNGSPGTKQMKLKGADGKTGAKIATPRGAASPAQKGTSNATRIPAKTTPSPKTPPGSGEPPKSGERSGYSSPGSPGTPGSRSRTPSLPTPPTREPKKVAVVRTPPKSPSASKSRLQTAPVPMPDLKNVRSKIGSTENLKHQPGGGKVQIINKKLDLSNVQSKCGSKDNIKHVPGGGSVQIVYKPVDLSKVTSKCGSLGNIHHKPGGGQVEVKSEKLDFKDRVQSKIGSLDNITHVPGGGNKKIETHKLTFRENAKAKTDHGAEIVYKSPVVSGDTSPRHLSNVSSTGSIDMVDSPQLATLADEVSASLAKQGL

B1: CE2 scAb (scFv, not shown: small tags and cut ends)
scFv: QVQLQESGPSLVKPSQTLSLTCTVSGFSLTNYPVGWVRQAPGKALEWIGNIENDGSANYASALKSRLSITRDTSKNQVSLSLSSATTEDTAVYYCGREFGGSDGYTYFVDIDYWGPGLLVTVSSEGKSSGASGESKVDDQAVLTQPSSVSKSLGQSVSITCSGSSSNVGYGNYVSWFQQVPGSAPKILIYGATSRASGVPDRFSGSRSGNTATLTITSLQAEDEADYYCASYDGSSSGVFGSGTRLTVLG
B2: CE3 scAb (scFv, not shown: small tags and cut ends)
scFv: QVRLQESGPSLVKPSQTLSVTCTVSGFSLISNAVGWVRQAPGKVPESLAGCSSDGKCYYNSALKSRLDITRDTSKNQISLSLSSVTTDDAAVYYCTRGYYPVYGYDYLGTIDYWGPGLLVTVSSEGKSSGASGESKVDDQAVLTQPSSVSGSLGQRVSITCSGSSSNVGRNDVAWFQQLPGSGLRTIIYGTTSRPSGIPDRFSGSKSGVTATLTIDSLQAEDEADYFCASGDSSAINDIFGSGTRLTVLG
B3: S1D12 scAb (scFv, not shown: small tags and cut ends)
scFv: QVQLQESGPSLVKPSQTLSLTCTVSGFSLNNNAVGWVRQAPGKVPESLVGCSSDGTCYYNSALKSRLDITRDTSKNQISLSLSSVTTDDAAVYYCTRGHYSIYGYDYLGTIDYWGPGLLVTVSSEGKSSGASGESKVDDQAVLTQPSSVSGSLGQRVSITCSGSSSNVGGGNSVGWYQHLPGSGLKTIIYDTNSRPSGVPDRFSGSRSGNTATLTINSLQAEDEGDYYCVTGDSTTHDDLVGSGTRLTVLG
B4: S1D12 mAb (antibody, mouse IgG2a, V domains shown)
VH: QVQLQESGPSLVKPSQTLSLTCTVSGFSLNNNAVGWVRQAPGKVPESLVGCSSDGTCYYNSALKSRLDITRDTSKNQISLSLSSVTTDDAAVYYCTRGHYSIYGYDYLGTIDYWGPGLLVTVSS
VL: QAVLTQPSSVSGSLGQRVSITCSGSSSNVGGGNSVGWYQHLPGSGLKTIIYDTNSRPSGVPDRFSGSRSGNTATLTINSLQAEDEGDYYCVTGDSTTHDDLVGSGTRLTVLG
B5: S1G2 mAb (antibody, mouse IgG2a, V domains shown)
VH: QVQLQESGPSLVKPSQTLSLTCTVSGFSLTSNSVGWVRQAPGKAPEWVAGIDTDGEEGYNPALNSRLSITRDTSKSQVSLSLSSVTSEDTAVYYCGRSYRADGLAYGYVQAIDYWGPGLLVTVSS
VL: QAVVTQPSSVSGSLGQRVSITCSGSFIGISSVGWFQQLPGSGLRTIIVASDGRPSGVPDRFSMSKSGNTATLTISSLQAEDEADYFCGSSDRTPYTGVFGSGTRLTVLG

Assays:
[1] = biological target: tau fragment 266-359 (R1-3) (human) (UniProt P10636); experiment: direct ELISA
[2] = biological target: tau fragment 266-359 (R1-3) (human) (UniProt P10636); experiment: ELISA
mouse tau (mouse) = mouse tau (mouse) (UniProt P10637); experiment: Western blot
[3] = biological target: human tau fragment 296-390 of Line 1 mice (human) (UniProt P10636); experiment: Western blot

Row | Binder | binding [1] | binding [2] | binding (mouse tau (mouse)) | binding [3]
1 | B1 | binds | binds |  | 
2 | B2 | binds | binds |  | 
3 | B3 | binds | binds |  | 
4 | B4 |  |  | binds | 
5 | B5 |  |  | binds | binds
